Data reported in patent US6589750B2, “Therapeutic use of the SMR1 protein, the SMR1 maturation products, specifically the QHNPR pentapeptide as well as its biologically active derivatives” (Institut Pasteur, priority 1997, dated 2003).

Test: Endogenous pentapeptide bloodstream secretion in conscious adult male rats (RIA of plasma)
Format: in vivo, rat

## QHNPR (tritiated proline; pyroglutamate/Gln1) [pentapeptide, final secretory maturation product of SMR1; used tritiated as (Glp1/Gln1)-His-Asn-(3,4 3H)Pro-Arg]
10 week-old male rats, n=5
  basal plasma pentapeptide-immunoreactive level: 1.9 ± 0.2 ng/mL
Conscious adult male rats
  physiological range of circulating pentapeptide: 1-7 ng/ml
Conscious male rats, 20-40 min post-injection of phenylephrine and isoproterenol, n=4
  plasma peptide-immunoreactive response: 12.5 ± 5.4 ng/mL
Conscious rats, acute ether stress, n=4
  immunoreactive pentapeptide circulating level: 7.0 ± 4.1 ng/mL
Plasma under pharmacological or acute stress-induced conditions, cation-exchange HPLC, n=6
  immunoreactive peptide fraction corresponding to free pentapeptide: 56±21%
